Experimental findings from article PMC3738564 are described below.

Chains of the proteins cited; added tags and fusions are not shown.
UniProt P11531: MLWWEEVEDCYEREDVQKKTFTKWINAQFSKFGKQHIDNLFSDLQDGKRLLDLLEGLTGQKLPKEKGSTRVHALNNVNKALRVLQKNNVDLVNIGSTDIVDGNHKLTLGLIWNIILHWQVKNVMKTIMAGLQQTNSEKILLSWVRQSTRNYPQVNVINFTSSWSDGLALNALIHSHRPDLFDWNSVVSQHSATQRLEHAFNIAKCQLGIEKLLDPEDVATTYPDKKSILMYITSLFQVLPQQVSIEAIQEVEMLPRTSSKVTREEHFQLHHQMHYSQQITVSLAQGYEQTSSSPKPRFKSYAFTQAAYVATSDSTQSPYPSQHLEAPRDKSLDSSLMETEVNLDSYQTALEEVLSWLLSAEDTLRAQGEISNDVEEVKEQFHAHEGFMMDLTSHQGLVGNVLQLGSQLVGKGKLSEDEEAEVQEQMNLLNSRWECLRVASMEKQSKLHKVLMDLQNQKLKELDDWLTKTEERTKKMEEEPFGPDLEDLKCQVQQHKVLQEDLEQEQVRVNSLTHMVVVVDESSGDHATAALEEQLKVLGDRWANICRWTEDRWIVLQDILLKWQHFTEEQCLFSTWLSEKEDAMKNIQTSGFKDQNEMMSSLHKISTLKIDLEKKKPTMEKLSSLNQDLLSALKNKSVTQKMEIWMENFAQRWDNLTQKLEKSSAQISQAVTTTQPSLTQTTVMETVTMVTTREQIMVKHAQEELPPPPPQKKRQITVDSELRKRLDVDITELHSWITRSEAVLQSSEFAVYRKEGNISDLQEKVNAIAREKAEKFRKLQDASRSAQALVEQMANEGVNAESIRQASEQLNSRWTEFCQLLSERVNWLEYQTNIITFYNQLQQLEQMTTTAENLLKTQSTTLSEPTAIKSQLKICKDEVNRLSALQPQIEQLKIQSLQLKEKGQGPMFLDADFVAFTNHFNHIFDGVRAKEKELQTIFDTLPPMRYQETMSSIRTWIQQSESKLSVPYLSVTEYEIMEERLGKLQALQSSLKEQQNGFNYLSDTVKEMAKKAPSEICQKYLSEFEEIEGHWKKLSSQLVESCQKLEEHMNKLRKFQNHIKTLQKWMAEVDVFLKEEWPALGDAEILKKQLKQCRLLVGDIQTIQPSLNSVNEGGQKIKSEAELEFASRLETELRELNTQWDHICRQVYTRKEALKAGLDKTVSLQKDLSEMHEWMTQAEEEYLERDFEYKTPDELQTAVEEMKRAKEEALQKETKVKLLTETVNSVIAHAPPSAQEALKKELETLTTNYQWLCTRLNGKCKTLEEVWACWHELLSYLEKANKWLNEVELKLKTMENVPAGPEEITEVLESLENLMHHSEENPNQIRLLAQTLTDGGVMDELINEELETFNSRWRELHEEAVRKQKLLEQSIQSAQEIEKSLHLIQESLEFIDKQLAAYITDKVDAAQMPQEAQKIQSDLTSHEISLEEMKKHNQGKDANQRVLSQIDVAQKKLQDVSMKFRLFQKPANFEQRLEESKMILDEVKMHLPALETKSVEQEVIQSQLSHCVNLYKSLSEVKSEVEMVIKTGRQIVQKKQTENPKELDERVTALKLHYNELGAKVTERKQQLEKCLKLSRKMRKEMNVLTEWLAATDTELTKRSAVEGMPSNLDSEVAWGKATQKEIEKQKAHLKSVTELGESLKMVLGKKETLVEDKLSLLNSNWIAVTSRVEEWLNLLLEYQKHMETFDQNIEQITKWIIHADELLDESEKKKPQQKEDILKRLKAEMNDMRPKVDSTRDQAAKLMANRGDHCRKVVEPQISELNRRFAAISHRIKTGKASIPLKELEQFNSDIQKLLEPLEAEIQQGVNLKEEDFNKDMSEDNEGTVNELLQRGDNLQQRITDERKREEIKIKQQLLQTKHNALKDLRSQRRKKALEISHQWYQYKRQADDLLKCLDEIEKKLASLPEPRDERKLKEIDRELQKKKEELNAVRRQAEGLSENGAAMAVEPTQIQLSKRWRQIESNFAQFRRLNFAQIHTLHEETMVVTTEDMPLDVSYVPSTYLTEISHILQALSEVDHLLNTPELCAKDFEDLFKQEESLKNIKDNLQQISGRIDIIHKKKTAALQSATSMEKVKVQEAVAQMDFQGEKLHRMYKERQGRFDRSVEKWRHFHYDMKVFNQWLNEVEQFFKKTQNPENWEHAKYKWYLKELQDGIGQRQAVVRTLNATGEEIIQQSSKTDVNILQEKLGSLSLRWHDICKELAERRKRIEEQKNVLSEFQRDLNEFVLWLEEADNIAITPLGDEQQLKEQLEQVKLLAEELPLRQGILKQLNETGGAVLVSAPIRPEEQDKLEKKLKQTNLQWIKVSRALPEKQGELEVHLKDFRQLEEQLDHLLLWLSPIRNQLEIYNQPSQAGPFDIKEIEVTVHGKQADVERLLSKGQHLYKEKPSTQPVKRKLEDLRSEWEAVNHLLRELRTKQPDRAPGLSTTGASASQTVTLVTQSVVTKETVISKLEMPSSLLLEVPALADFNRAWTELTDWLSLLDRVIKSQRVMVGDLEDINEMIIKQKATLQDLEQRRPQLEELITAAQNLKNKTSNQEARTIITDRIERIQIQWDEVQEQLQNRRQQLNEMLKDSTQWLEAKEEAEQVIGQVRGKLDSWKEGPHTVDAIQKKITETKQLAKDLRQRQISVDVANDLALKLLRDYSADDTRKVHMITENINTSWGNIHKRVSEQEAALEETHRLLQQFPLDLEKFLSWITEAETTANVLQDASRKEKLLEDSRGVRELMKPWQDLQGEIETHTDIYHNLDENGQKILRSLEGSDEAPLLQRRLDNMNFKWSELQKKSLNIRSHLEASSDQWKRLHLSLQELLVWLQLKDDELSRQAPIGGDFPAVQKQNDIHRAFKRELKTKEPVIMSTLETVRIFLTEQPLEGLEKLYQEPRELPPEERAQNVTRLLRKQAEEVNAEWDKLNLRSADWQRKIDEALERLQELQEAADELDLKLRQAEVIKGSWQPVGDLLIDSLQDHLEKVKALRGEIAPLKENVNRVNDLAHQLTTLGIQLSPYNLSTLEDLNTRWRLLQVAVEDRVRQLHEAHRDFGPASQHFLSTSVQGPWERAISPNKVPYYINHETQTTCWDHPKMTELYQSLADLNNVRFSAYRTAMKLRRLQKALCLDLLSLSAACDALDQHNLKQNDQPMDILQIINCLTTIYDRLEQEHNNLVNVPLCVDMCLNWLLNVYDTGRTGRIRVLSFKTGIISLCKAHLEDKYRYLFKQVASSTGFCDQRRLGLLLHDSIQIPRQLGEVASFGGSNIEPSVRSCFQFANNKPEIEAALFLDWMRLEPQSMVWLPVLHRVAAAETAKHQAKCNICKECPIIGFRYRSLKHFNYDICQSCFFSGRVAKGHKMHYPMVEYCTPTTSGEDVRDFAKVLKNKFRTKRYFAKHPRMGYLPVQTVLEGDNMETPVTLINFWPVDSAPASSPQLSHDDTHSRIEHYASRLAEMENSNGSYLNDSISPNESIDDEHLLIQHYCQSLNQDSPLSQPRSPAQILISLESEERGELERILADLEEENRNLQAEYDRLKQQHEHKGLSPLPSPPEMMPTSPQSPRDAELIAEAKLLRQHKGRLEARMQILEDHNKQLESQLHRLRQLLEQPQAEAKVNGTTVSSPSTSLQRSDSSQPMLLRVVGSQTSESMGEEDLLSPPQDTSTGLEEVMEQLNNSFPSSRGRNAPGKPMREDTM
UniProt Q9QWL7: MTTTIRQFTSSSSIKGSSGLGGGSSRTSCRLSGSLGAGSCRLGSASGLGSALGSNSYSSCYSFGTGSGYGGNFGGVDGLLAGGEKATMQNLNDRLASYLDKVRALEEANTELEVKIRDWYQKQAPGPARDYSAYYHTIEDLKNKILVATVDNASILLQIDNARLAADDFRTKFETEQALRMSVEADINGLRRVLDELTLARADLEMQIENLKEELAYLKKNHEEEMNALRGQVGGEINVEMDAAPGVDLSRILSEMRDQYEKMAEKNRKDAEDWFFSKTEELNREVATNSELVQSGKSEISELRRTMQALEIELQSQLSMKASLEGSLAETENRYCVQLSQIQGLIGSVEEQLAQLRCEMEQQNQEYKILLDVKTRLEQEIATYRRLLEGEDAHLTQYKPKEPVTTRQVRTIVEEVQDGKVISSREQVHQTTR

No constants are given. Whether binding was seen depends on the method and setting. In cells and extracts the contact can be indirect. These calls come from enrichment with a bait or labelling near it, and not all partners need be listed. For some of these results: A no says only that the protein was not detected with the bait.

In assay [1] the target is full length (427 kDa) dystrophin (mouse (endogenous in skeletal muscle)) (UniProt P11531). Nature of the assay: affinity purification with mass spectrometry; 3 dystrophin immunoprecipitations (MANDYS1) from wild type quadriceps; LC-MS/MS on LTQ Orbitrap; proteins of control immunoprecipitations subtracted.
The target in assay [2] is T1, β-dystroglycan (mouse (endogenous in skeletal muscle)) (UniProt Q62165).
T1 sequence: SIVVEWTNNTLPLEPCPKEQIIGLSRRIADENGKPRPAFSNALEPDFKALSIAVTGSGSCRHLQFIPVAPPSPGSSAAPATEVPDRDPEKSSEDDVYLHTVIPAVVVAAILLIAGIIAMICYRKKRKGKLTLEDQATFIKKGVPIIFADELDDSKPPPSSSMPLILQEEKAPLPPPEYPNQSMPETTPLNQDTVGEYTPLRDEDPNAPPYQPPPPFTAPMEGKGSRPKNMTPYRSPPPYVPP
Nature of the assay: affinity purification with mass spectrometry; 4 β-dystroglycan immunoprecipitations (MANDAG2) from wild type quadriceps; LC-MS/MS on LTQ Orbitrap; proteins of control immunoprecipitations subtracted.

The target in assay [3] is full length (427 kDa) dystrophin (mouse (endogenous in skeletal muscle)), P11531. Briefly: affinity purification with mass spectrometry; 3 dystrophin immunoprecipitations (MANDYS1) from wild type quadriceps; LC-MS/MS on LTQ Orbitrap; proteins of control immunoprecipitations subtracted. The conditions noted are these: remark: other sources report otherwise.

On to “Keratin, type I cytoskeletal 17 (from UniProt Q9QWL7 1-433)”, for which the binding result in assay [1] is “no binding”; in assay [2], “binds”.

B1: Polymerase I and transcript release factor (Cavin-1) (protein, UniProt O54724 1-392)
chain: MEDVTLHIVERPYSGFPDASSEGPEPTQGEARATEEPSGTGSDELIKSDQVNGVLVLSLLDKIIGAVDQIQLTQAQLEERQAEMEGAVQSIQGELSKLGKAHATTSNTVSKLLEKVRKVSVNVKTVRGSLERQAGQIKKLEVNEAELLRRRNFKVMIYQDEVKLPAKLSVSKSLKESEALPEKEGDELGEGERPEDDTAAIELSSDEAVEVEEVIEESRAERIKRSGLRRVDDFKKAFSKEKMEKTKVRTRENLEKTRLKTKENLEKTRHTLEKRMNKLGTRLVPVERREKLKTSRDKLRKSFTPDHVVYARSKTAVYKVPPFTFHVKKIREGEVEVLKATEMVEVGPEDDEVGAERGEATDLLRGSSPDVHTLLEITEESDAVLVDKSDSD
Turning to B1, the binding entry in assay [2] is “binds”.

B2: β2-syntrophin, Q61235 1-520 (protein)
chain: MAVWTRATKAGLVELLLRERWVRVVAELSGESLSLTGDAAAVEPEPPAAAFNGLPNGGGGESLPGSPNRGLGPPSPPAPPRGPAGEASASPPVRRVRVVKQEAGGLGISIKGGRENRMPILISKIFPGLAADQSRALRLGDAILSVNGTDLRQATHDQAVQALKRAGKEVLLEVKFIREVTPYIKKPSLVSDLPWEGASPQSPSFSGSEDSGSPKHQNTTKDRKVIPLKMCFAARNLSMPDLENRLIELHSPDSRNTLILRCKDTATAHSWFVAIHTNIMALLPQVLAELNAMLGATSTAGGSKEVKHIAWLAEQAKLDGGRQQWRPVLMAVTEKDLLLYDCMPWTRDAWASPCHSYPLVATRLVHSGSGCRSPSLGSDLTFATRTGSRQGIEMHLFRVETHRDLSTWTRILVQGCHAAAELIKEVSLGCTLSGQEVRFTVHYEHGFTITRDNGGASSILYRYPFERLKMSADDGIRNLYLDFGGPEGELTMDLHSCPKPIVFVLHTFLSAKVTRMGLLV
Consider B2, for which, in assay [3], the binding result was “no binding”.
